This is one part of the list. The list holds hits alone, and they repeat only in part.

The chains behind the UniProt entries cited, without tags or fusion partners.
KPNA3, O00505, UniProt O00505, whole entry: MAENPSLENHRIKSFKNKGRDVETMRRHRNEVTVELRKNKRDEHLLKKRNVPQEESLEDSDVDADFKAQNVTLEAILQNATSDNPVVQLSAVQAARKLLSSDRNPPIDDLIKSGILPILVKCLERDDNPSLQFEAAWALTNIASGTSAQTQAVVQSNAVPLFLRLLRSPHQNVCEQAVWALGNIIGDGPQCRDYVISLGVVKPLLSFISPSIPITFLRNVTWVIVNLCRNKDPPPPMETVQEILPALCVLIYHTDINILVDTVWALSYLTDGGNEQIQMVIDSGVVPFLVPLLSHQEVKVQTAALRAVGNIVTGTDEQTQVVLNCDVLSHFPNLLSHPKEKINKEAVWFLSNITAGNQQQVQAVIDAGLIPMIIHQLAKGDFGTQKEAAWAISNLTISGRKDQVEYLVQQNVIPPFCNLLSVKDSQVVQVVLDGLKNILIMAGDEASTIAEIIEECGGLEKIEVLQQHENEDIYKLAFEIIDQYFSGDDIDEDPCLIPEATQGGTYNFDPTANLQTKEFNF
PHAX, Q9H814, UniProt Q9H814, whole entry: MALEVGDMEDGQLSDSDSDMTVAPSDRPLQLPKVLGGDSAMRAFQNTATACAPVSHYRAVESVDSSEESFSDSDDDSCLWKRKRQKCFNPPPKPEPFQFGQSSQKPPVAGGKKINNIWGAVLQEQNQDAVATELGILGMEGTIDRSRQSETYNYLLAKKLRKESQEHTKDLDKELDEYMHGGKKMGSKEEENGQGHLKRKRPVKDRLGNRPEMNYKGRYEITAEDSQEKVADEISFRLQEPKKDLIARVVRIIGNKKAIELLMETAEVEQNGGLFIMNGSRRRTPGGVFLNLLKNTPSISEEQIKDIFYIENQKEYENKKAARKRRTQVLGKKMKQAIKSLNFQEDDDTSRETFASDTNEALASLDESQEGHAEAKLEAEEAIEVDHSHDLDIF
GRWD1, Q9BQ67, UniProt Q9BQ67, whole entry: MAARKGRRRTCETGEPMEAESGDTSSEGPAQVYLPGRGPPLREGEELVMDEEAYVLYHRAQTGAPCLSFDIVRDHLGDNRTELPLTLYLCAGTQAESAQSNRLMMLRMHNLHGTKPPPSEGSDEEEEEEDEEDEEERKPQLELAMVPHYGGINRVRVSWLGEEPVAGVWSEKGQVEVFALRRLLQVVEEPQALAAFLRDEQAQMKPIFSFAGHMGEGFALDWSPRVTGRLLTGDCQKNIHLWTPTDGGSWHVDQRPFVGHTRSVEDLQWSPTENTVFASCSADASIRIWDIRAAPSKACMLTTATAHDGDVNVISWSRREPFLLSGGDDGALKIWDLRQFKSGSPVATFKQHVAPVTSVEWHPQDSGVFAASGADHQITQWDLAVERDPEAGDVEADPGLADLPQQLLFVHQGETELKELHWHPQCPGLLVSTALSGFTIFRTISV
SDC2, P34741, UniProt P34741, whole entry: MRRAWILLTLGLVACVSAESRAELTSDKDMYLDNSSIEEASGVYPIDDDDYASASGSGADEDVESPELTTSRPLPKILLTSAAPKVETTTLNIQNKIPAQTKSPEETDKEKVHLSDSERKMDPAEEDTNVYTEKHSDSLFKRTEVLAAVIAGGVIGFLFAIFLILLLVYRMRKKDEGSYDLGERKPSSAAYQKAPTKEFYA
SRSF1, Q07955, UniProt Q07955, whole entry: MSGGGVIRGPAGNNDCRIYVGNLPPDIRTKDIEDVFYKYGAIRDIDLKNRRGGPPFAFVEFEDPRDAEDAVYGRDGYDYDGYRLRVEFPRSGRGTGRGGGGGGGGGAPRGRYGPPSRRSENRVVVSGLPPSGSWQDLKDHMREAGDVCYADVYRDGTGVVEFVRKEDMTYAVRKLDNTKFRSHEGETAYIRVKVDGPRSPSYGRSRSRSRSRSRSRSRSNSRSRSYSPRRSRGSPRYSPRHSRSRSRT
SRSF9, Q13242, UniProt Q13242, whole entry: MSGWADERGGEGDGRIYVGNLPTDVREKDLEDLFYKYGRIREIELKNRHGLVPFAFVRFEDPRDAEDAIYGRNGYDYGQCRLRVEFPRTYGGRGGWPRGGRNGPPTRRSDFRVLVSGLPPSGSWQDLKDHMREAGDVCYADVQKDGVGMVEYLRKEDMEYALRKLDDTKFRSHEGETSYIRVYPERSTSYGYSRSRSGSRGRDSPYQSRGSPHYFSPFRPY
TUBB8, Q3ZCM7, UniProt Q3ZCM7, whole entry: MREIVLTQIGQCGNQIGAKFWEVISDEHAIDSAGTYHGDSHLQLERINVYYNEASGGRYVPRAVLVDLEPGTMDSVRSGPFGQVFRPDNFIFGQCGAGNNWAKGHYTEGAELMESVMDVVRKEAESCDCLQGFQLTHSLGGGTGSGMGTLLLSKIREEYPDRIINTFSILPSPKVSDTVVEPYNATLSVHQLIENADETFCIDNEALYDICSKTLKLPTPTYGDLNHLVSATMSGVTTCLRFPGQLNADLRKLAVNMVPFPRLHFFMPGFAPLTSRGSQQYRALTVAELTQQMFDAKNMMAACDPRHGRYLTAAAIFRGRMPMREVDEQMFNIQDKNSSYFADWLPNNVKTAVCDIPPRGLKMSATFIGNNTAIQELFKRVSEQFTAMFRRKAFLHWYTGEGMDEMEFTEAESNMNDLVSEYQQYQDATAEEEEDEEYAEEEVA

Assay in all cases: PRISMA enrichment of interactor (LFQ) in peptide spot vs all other peptide spots (log2 fold change); higher = stronger / more specific binding of the interactor to the peptide
Test [1] addresses ANP32A, P39687. On the procedure:
(§1)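 PRISMA: 221 full-length sORF-encoded peptides (3-15 aa), plus SOS1/GLUT1 control peptides, were spot-synthesized on cellulose membranes in triplicate. Membranes were incubated with HEK293T lysate, and bound proteins were identified by LC-MS/MS with LFQ. Enrichment is the log2 fold change versus all other peptide spots; only significant interactors are listed (cutoff c=6, x0=2.8).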

In test [2] the target is ANP32B, Q92688. As to the method: as §1
Test [3] addresses ANP32E, Q9BTT0. As to the method:
as §1

In test [4] the target is CCDC47, Q96A33. As to the method: as §1
Test [5] deals with CDC73, Q6P1J9. On the procedure:
as §1

The target of test [6] is CLSPN, Q9HAW4. On the procedure:
as §1

For test [7], the target named is CTR9, Q6PD62. On the procedure:
as §1

Test [8] has as its target DAP3, P51398. As to the method: as §1
For test [9], the target named is GTF2E2, P29084. As to the method: as §1
Test [10] deals with GTF3C5, Q9Y5Q8. As to the method:
as §1

For test [11], the target named is HTATSF1, O43719. On the procedure:
as §1

In test [12] the target is KPNA3, O00505. On the procedure: as §1
Test [13] has as its target LARP1, Q6PKG0. As to the method:
as §1

The target of test [14] is MRPL12, P52815. On the procedure: as §1
Test [15] addresses MRPL37, Q9BZE1. On the procedure:
as §1

Test [16] concerns the target MRPL39, Q9NYK5. On the procedure: as §1
Test [17] concerns the target MRPS31, Q92665. As to the method: as §1
The target in test [18] is MRPS5, P82675. On the procedure: as §1
Test [19] deals with NAP1L1, P55209. On the procedure: as §1
For test [20], the target named is NAT10, Q9H0A0. On the procedure: as §1
Test [21] deals with NPM3, O75607. On the procedure: as §1
The target of test [22] is PAF1, Q8N7H5. On the procedure: as §1
Test [23] concerns the target PHAX, Q9H814. As to the method: as §1
Test [24] deals with PPM1G, O15355. On the procedure: as §1
In test [25] the target is PTCD3, Q96EY7. As to the method:
as §1

The target of test [26] is RO60, P10155. As to the method:
as §1

The target in test [27] is SART3, Q15020. As to the method: as §1
Test [28] concerns the target SMAP, O00193. On the procedure: as §1
Test [29] has as its target SRP19, P09132. On the procedure: as §1
Test [30] deals with SUPT5H, O00267. On the procedure:
as §1

Test [31] deals with WDR43, Q15061. On the procedure: as §1
The target of test [32] is BRIX1, Q8TDN6. On the procedure: as §1
Test [33] has as its target C7orf50, Q9BRJ6. As to the method: as §1
Test [34] has as its target DDX21, Q9NR30. As to the method: as §1
In test [35] the target is EBNA1BP2, Q99848. On the procedure:
as §1

The target in test [36] is EIF6, P56537. As to the method: as §1
The target of test [37] is GNL2, Q13823. On the procedure: as §1
Test [38] concerns the target GPC4, O75487. As to the method:
as §1

Test [39] has as its target GRWD1, Q9BQ67. On the procedure: as §1
For test [40], the target named is GTPBP4, Q9BZE4. As to the method: as §1
Test [41] concerns the target IWS1, Q96ST2. On the procedure: as §1
The target of test [42] is LLPH, Q9BRT6. As to the method:
as §1

The target of test [43] is MAGEB2, O15479. As to the method: as §1
For test [44], the target named is MOV10, Q9HCE1. As to the method: as §1
Test [45] addresses MRTO4, Q9UKD2. On the procedure: as §1
The target of test [46] is NOP2, P46087. On the procedure:
as §1

The target in test [47] is RBM28, Q9NW13. As to the method:
as §1

Test [48] has as its target RBM34, P42696. As to the method: as §1
In test [49] the target is RPL26L1, Q9UNX3. As to the method: as §1
The target of test [50] is RPS29, P62273. On the procedure:
as §1

The target of test [51] is RSL1D1, O76021. On the procedure: as §1
For test [52], the target named is SDC1, P18827. On the procedure:
as §1

The target in test [53] is SDC2, P34741. As to the method: as §1
Test [54] deals with SRSF1, Q07955. On the procedure: as §1
Test [55] has as its target SRSF10, O75494. As to the method:
as §1

Test [56] concerns the target SRSF5, Q13243. As to the method:
as §1

Test [57] has as its target SRSF7, Q16629. As to the method: as §1
Test [58] has as its target SRSF9, Q13242. On the procedure:
as §1

In test [59] the target is STAU1, O95793. As to the method:
as §1

Test [60] concerns the target UPF1, Q92900. As to the method: as §1
The target in test [61] is MRPL10, Q7Z7H8. As to the method: as §1
Test [62] deals with NAF1, Q96HR8. As to the method:
as §1

Test [63] has as its target NAP1L4, Q99733. On the procedure:
as §1

Test [64] addresses NUCKS1, Q9H1E3. As to the method: as §1
Test [65] addresses PPP1R2, P41236. As to the method: as §1
Test [66] has as its target PTGES3, Q15185. On the procedure:
as §1

Test [67] has as its target UBXN7, O94888. As to the method:
as §1

Test [68] has as its target WBP11, Q9Y2W2. On the procedure:
as §1

Test [69] concerns the target MRPL17, Q9NRX2. On the procedure:
as §1

In test [70] the target is MRPS34, P82930. As to the method:
as §1

Test [71] has as its target NUP43, Q8NFH3. As to the method: as §1
Test [72] has as its target SDF4, Q9BRK5. On the procedure:
as §1

Test [73] addresses TUBB8, Q3ZCM7. As to the method:
as §1

Test [74] concerns the target ZRANB2, O95218. As to the method:
as §1

For the molecule MRKMAASKGG [ATPAF2], the “PRISMA enrichment of interactor (log2)” value in test [1] was 6.37; in [2] it was 7.44; in test [3], 7.08; in test [4] it was 5.86; in test [5] it was 5.34; in test [6] it was 3.76. In addition, the “PRISMA enrichment of interactor (log2)” value in test [7] amounted to 5.54; in test [8], 5.37; in test [9] it was 4.09; in [10], 4.38; in test [11], 6.28; in test [12], 4.48. The “PRISMA enrichment of interactor (log2)” value in test [13] was found to be 5.73; in test [14], 4.43; in test [15], 4.96; in [16] it was 5.81; in test [17], 5.16; in [18], 5.4. In addition, the “PRISMA enrichment of interactor (log2)” value in test [19] stood at 5.82; in [20] it was 4.99; in test [21], 6.22; in test [22], 5.83; in test [23], 4.4; in test [24], 6.71. Also, the “PRISMA enrichment of interactor (log2)” value in test [25] turned out to be 5.98; in [26] it was 5.47; in [27], 4.81; in [28], 4.91; in test [29] it was 5.19; in test [30], 4.98. Also, the “PRISMA enrichment of interactor (log2)” value in test [31] is 5.21.
As to MGQRGKSE [COBL], the “PRISMA enrichment of interactor (log2)” value came out at 6.3 in [2]; 6.07 in [3]; 5.87 in test [32]; 4.67 in test [33]; 5.43 in test [7]; 6.33 in test [34]. Besides, the “PRISMA enrichment of interactor (log2)” value in test [35] is 5.92; in test [36], 5.19; in test [37], 5.84; in test [38], 6.39; in test [39], 5.03; in test [40], 6.52. Moreover, the “PRISMA enrichment of interactor (log2)” value in test [11] was 7.65; in test [41] it was 5.19; in [13], 5.71; in test [42], 4.09; in test [43] it was 6.2; in [44], 6.46. Moreover, the “PRISMA enrichment of interactor (log2)” value in test [45] amounted to 4.68; in test [20], 6.06; in [46], 5.93; in test [22] it was 6.16; in [47], 5.4; in test [48], 5.01. The “PRISMA enrichment of interactor (log2)” value was 4.75 in test [49]; 5.35 in test [50]; 5.6 in test [51]; 4.12 in test [52]; 5.45 in test [53]; 5.92 in test [54]. Moreover, the “PRISMA enrichment of interactor (log2)” value in [55] is 4.67; in [56], 5.51; in test [57], 5.82; in test [58], 6.63; in test [59], 5.49; in test [60] it was 5.76.
For the molecule MIIPKGKQSRQCRR [ASB15], the “PRISMA enrichment of interactor (log2)” value was found to be 6.59 in test [2]; 6.45 in [3]; 5.85 in test [61]; 3.98 in test [62]; 5.05 in test [63]; 6 in test [21]. The “PRISMA enrichment of interactor (log2)” value in test [64] was found to be 5.01; in [24], 6.26; in test [65], 3.94; in [66] it was 5.89; in [29] it was 4.91; in [67] it was 3.99. For the same molecule, the results for the “PRISMA enrichment of interactor (log2)” value in [68] and in test [31] were 5.03 and 5.55, respectively.
As to MSRSKRVSFPPGKCP [PELO], the “PRISMA enrichment of interactor (log2)” value in [1] came to 5.95; in [2] it was 7.78; in [3] it was 6.62; in test [69], 9.74; in test [70], 5.28; in test [19], 5.95. The “PRISMA enrichment of interactor (log2)” value in test [71] worked out at 5.04; in [72], 4.5; in [56] it was 4.76; in test [73] it was 5.51; in [74], 5.1.
